# Test system: HLA-A*24-positive lung cancer (NSCLC) samples
# Experiment: Relative LC-MS quantitation of HLA-A*24 peptide presentation on tumors vs normal tissues
# Parameters: species or system human
# Conditions: FIG. 1C, 1D, 1G legends; A*24
row,Substance,"peptide was also found on (other cancers, not shown)"
1,28 (RYLDSLKAIVF; listed as Homo sapiens) [compound 28],"hepatic cancer, gastric cancer, RCC"
2,23 (VYTSWQIPQKF; listed as Homo sapiens) [compound 23],"prostate cancer, gastric cancer"

# Same assay, conditions: HLA-A*24 peptides, amendment of Table 10
row,Substance,Additional Entities (additional tumor types showing over-presentation)
1,76 (VYTZIQSRF; listed as Homo sapiens) [compound 76],Brain Cancer
2,72 (YYVDKLFNTI; listed as Homo sapiens) [compound 72],Brain Cancer
3,67 (IFLDYEAGHLSF; listed as Homo sapiens) [compound 67],Brain Cancer
4,46 (NYTNGSFGSNF; listed as Homo sapiens) [compound 46],Brain Cancer
5,32 (EYQPEMLEKF; listed as Homo sapiens) [compound 32],Brain Cancer

# Same assay, conditions: HLA-A*24 peptides; over-presented on >5% of measured tumor samples, or presented on >5% with ratio of geometric means tumor vs normal >3
row,Substance,Other relevant organs/diseases (additional tumor types on which the peptide was found)
1,81 (KYIEAIQWI; listed as Homo sapiens) [compound 81],Liver
2,49 (QYLFPSFETF; listed as Homo sapiens) [compound 49],Stomach
3,28 (RYLDSLKAIVF; listed as Homo sapiens) [compound 28],"Kidney, Liver"
4,51 (NYLLESPHRF; listed as Homo sapiens) [compound 51],Liver
5,60 (SYPAKLSFI; listed as Homo sapiens) [compound 60],Liver
6,76 (VYTZIQSRF; listed as Homo sapiens) [compound 76],"Liver, Prostate"
7,73 (RYLHVEGGNF; listed as Homo sapiens) [compound 73],"Brain, Liver"
8,72 (YYVDKLFNTI; listed as Homo sapiens) [compound 72],"Liver, Prostate"
9,66 (DYIPQLAKF; listed as Homo sapiens) [compound 66],"Kidney, Liver"
10,61 (RYGSPINTF; listed as Homo sapiens) [compound 61],"Liver, Prostate"
11,37 (RYLEYFEKI; listed as Homo sapiens) [compound 37],"Brain, Liver, Prostate"
12,67 (IFLDYEAGHLSF; listed as Homo sapiens) [compound 67],"Kidney, Stomach, Liver, Prostate"
13,62: peptide found in AIFM2 (gene looked up) (AYKPGALTF; listed as Homo sapiens) [compound 62],Liver
14,46 (NYTNGSFGSNF; listed as Homo sapiens) [compound 46],Liver
15,45 (KFLESKGYEF; listed as Homo sapiens) [compound 45],Brain
16,59 (HYFNTPFQL; listed as Homo sapiens) [compound 59],"Kidney, Brain, Liver, Prostate"

row,Substance,Other relevant organs/diseases (additional tumor types on which the peptide was found)
1,52 (SYMEVPTYLNF; listed as Homo sapiens) [compound 52],Liver
2,56 (RYFPTQALNF; listed as Homo sapiens) [compound 56],"Kidney, Stomach, Liver"
3,75 (AYPDLNEIYRSF; listed as Homo sapiens) [compound 75],Liver
4,50 (LYIGWDKHYGF; listed as Homo sapiens) [compound 50],"Kidney, Stomach, Liver"
5,63 (LYINKANIW; listed as Homo sapiens) [compound 63],"Stomach, Liver"
6,54 (AYKDKDISFF; listed as Homo sapiens) [compound 54],"Kidney, Brain"
7,79 (RYGGSFAEL; listed as Homo sapiens) [compound 79],"Brain, Liver"
8,69 (TYAALNSKATF; listed as Homo sapiens) [compound 69],Liver
9,70 (VYHSYLTIF; listed as Homo sapiens) [compound 70],"Brain, Liver"
10,33 (TYSEKTTLF; listed as Homo sapiens) [compound 33],Stomach
11,71 (TYLTNHLRL; listed as Homo sapiens) [compound 71],Liver
12,78 (IYTRVTYYL; listed as Homo sapiens) [compound 78],"Stomach, Prostate"
13,80 (AYLKEVEQL; listed as Homo sapiens) [compound 80],"Brain, Prostate"
14,53 (IYAGQWNDF; listed as Homo sapiens) [compound 53],Prostate
15,44 (IYNQIAELW; listed as Homo sapiens) [compound 44],"Stomach, Liver"

# Test system: HLA-A*24-positive lung cancer (NSCLC) samples
# Experiment: as above
# Parameters: species or system human; key: very highly over-presented on tumors compared to a panel of normal tissues (+++); highly over-presented on tumors compared to a panel of normal (healthy) tissues (++); over-presented on tumors compared to a panel of normal tissues (+)
# Conditions: HLA-A*24 peptides; tumors compared to a panel of normal tissues
row,Substance,Peptide Presentation (presentation score)
1,IQGAP1-001 (TYAALNSKATF; listed as Homo sapiens),+++
2,COLEC12-001 (IYAGQWNDF; listed as Homo sapiens),+++
3,G2E-002 (LYINKANIW; listed as Homo sapiens) [Peptide G2E-002],+++
4,RYLDSLKAIVF (listed as Homo sapiens) [SEQ ID No. 28],+++
5,ZBED5-001 (AYKDKDISFF; listed as Homo sapiens),+++
6,MREG-001 (RYLFVVDRL; listed as Homo sapiens),+++
7,PVRL1-001 (IYNPSMGVSVL; listed as Homo sapiens),+++
8,COL12A1-003 (SYSIGIANF; listed as Homo sapiens),+++
9,KFLEHTNFEF (listed as Homo sapiens) [SEQ ID No. 39],+++
10,ABCC1-001 (VYVTIDENNIL; listed as Homo sapiens),+++
11,AHD-001 (EYSDVLAKLAF; listed as Homo sapiens),+++
12,TRIM11-001 (IFLDYEAGHLSF; listed as Homo sapiens),+++
13,SYPAKLSFI (listed as Homo sapiens) [SEQ ID No. 60],+++
14,DDX5-007 (NYTNGSFGSNF; listed as Homo sapiens),+++
15,SP14-001 (AYPDLNEIYRSF; listed as Homo sapiens),+++
16,LAPTM5-001 (SYMEVPTYLNF; listed as Homo sapiens),+++
17,XPR-001 (VYPLALYGF; listed as Homo sapiens),+++
18,PSMA4-001 (LYIGWDKHYGF; listed as Homo sapiens),+++
19,RYTLHINTL (listed as Homo sapiens) [SEQ ID No. 43],+++

row,Substance,Peptide Presentation (presentation score)
1,C6orf132-001 (RYGSPINTF; listed as Homo sapiens) [Peptide C6orf132-001],+++
2,RYISPDQLADL (listed as Homo sapiens) [SEQ ID No. 47],+++
3,KLRD-001 (QYLFPSFETF; listed as Homo sapiens),+++
4,VFMKDGFFYF (listed as Homo sapiens) [SEQ ID No. 34],+++
5,IYPVKYTQTF (listed as Homo sapiens) [SEQ ID No. 55],+++
6,TUBGCP3-001 (FYQGIVQQF; listed as Homo sapiens),+++
7,PPTC-001 (HYFNTPFQL; listed as Homo sapiens),+++
8,FAM83A-001 (PFLQASPHF; listed as Homo sapiens),+++
9,HSPBP-001 (RYLEAGAAGLRW; listed as Homo sapiens),+++
10,GLS-001 (DYIPQLAKF; listed as Homo sapiens),+++
11,AIFM2-001: peptide found in AIFM2 (gene looked up) (AYKPGALTF; listed as Homo sapiens),+++
12,SMPDL3B-001 (IYNQIAELW; listed as Homo sapiens),+++
13,SYLDKVRAL (listed as Homo sapiens) [SEQ ID No. 31],+++
14,ABCA13-003 (EYLPEFLHTF; listed as Homo sapiens),+++
15,TPS-001 (IYTRVTYYL; listed as Homo sapiens),+++
16,RBPJ-001 (RYLHVEGGNF; listed as Homo sapiens),+++
17,DYR-001 (VYTZIQSRF; listed as Homo sapiens),+++
18,SAMD9L-001 (IYQRWKDLL; listed as Homo sapiens),+++
19,TRPM2-001 (VYHSYLTIF; listed as Homo sapiens),+++
